US20230340127A1, “METHODS AND COMPOSITIONS FOR CANCER TREATMENT BY INHIBITION OF FBXO44” (Sanford Burnham Prebys Medical Discovery Institute, priority 2022, published 2023)

Sequences of proteins named here, by UniProt entry; tags and fusion partners are left off. Residues count along the entry.
UniProt Q16576, residues 2-425: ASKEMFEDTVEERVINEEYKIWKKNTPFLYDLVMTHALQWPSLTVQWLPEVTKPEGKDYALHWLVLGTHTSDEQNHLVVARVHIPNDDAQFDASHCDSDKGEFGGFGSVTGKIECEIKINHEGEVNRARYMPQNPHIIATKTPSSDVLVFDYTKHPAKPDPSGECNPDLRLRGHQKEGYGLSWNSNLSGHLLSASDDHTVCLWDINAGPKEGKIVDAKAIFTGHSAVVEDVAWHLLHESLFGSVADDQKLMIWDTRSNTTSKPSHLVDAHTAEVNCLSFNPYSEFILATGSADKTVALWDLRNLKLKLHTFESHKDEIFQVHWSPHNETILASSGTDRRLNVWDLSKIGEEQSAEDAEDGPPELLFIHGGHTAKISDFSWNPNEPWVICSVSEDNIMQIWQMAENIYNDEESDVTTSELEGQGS
UniProt Q86YP4: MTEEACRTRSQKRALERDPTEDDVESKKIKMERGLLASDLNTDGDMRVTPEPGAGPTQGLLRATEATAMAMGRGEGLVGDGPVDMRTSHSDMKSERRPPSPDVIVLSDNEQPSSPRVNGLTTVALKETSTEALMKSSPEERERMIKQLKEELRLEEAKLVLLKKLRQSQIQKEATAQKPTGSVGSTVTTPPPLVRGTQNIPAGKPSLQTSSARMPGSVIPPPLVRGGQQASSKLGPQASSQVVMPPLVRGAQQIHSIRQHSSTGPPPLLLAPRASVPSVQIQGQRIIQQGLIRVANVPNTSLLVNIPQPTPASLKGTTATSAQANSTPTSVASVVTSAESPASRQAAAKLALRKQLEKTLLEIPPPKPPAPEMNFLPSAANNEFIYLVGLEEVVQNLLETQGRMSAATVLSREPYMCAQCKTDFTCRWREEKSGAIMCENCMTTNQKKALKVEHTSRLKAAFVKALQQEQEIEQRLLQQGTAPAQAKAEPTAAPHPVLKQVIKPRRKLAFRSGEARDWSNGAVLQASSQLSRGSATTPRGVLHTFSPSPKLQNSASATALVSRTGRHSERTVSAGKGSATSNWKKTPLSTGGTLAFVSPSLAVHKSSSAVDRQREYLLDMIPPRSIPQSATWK
UniProt Q13620: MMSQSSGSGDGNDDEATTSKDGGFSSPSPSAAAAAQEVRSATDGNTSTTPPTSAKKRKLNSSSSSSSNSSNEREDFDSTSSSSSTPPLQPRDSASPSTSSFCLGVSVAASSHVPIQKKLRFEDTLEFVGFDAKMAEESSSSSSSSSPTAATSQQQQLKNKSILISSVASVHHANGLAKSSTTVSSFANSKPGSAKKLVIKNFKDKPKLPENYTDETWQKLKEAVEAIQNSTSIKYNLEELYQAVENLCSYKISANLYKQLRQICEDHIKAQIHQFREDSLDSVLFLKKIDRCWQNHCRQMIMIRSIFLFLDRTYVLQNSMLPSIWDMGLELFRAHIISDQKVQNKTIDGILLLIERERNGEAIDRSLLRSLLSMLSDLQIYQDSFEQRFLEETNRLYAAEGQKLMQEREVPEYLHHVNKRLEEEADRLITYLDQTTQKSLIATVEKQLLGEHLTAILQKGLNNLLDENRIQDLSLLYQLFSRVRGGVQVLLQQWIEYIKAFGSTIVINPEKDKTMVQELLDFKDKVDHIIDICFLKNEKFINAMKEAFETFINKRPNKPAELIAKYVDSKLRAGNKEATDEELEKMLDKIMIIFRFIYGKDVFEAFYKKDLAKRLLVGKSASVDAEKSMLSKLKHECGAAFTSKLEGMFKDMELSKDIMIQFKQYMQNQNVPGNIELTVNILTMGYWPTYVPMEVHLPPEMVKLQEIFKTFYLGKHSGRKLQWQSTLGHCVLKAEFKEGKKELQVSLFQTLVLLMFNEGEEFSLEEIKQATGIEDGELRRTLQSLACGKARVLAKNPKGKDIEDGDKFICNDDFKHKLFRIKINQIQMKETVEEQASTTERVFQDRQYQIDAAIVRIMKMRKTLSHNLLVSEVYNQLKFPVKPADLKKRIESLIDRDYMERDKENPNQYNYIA
UniProt Q09028, residues 2-425: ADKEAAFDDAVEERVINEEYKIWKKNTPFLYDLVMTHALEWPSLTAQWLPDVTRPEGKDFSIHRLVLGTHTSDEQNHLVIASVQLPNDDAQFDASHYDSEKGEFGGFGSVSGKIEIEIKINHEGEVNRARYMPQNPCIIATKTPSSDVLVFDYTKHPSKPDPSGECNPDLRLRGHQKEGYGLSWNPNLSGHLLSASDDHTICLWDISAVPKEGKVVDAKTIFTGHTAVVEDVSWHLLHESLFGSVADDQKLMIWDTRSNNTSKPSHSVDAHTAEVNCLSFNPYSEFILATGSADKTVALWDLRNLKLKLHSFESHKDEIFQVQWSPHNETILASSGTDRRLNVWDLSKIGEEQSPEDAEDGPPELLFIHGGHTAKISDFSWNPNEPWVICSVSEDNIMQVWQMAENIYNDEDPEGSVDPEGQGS
UniProt Q8WXI9: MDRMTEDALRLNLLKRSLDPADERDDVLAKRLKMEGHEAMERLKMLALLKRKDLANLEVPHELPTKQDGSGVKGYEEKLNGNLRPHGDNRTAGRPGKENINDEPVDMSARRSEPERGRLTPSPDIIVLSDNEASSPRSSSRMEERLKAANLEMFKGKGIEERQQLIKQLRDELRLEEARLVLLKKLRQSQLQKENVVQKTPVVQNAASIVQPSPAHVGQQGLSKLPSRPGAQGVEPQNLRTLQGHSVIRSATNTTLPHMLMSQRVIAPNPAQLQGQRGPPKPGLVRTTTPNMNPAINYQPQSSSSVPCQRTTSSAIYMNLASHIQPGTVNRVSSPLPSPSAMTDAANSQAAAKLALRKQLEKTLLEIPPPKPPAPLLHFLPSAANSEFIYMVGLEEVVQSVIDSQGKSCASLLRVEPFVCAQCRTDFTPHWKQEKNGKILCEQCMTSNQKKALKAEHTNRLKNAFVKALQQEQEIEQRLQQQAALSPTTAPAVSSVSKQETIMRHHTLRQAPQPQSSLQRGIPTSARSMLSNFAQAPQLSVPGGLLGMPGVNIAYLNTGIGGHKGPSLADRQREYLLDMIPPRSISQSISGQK

Assays:
Assay in all cases: anti-Flag affinity purification of Flag-FBXO44 complexes, mass spectrometry (FIG. 3A)
RBBP7 (endogenous) = RBBP7 (endogenous) (UniProt Q16576)
GATAD2A (endogenous) = GATAD2A (endogenous) (UniProt Q86YP4)
CUL4B (endogenous) = CUL4B (endogenous) (UniProt Q13620)
RBBP4 (endogenous) = RBBP4 (endogenous) (UniProt Q09028)
GATAD2B (endogenous) = GATAD2B (endogenous) (UniProt Q8WXI9)

- binding (RBBP7 (endogenous)): binds
- binding (GATAD2A (endogenous)): binds
- binding (CUL4B (endogenous)): binds
- binding (RBBP4 (endogenous)): binds
- binding (GATAD2B (endogenous)): binds
B1: Flag-FBXO44 (protein, human, UniProt Q9H4M3 1-255, looked up, not shown: small tags and cut ends)
chain: MAVGNINELPENILLELFTHVPARQLLLNCRLVCSLWRDLIDLVTLWKRKCLREGFITEDWDQPVADWKIFYFLRSLHRNLLHNPCAEEGFEFWSLDVNGGDEWKVEDLSRDQRKEFPNDQVKKYFVTSYYTCLKSQVVDLKAEGYWEELMDTTRPDIEVKDWFAARPDCGSKYQLCVQLLSSAHAPLGTFQPDPATIQQKSDAKWREVSHTFSNYPPGVRYIWFQHGGVDTHYWAGWYGPRVTNSSITIGPPLP

These are yes or no findings as the source states them, for the method shown. In cells and extracts the contact can be indirect. A yes stands for co-enrichment or nearness to the bait. Other partners may have been found. Tags and fused reporters may be left off the sequences shown.
